Two substances from paper PMC10138897 can be followed below.

By UniProt entry, the sequences of proteins in these tests, tags left out. Residues count along the entry.
UniProt P63165, residues 1-97: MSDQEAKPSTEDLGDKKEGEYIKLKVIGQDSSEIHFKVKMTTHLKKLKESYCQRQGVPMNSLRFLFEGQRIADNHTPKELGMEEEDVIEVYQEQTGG
UniProt O75925: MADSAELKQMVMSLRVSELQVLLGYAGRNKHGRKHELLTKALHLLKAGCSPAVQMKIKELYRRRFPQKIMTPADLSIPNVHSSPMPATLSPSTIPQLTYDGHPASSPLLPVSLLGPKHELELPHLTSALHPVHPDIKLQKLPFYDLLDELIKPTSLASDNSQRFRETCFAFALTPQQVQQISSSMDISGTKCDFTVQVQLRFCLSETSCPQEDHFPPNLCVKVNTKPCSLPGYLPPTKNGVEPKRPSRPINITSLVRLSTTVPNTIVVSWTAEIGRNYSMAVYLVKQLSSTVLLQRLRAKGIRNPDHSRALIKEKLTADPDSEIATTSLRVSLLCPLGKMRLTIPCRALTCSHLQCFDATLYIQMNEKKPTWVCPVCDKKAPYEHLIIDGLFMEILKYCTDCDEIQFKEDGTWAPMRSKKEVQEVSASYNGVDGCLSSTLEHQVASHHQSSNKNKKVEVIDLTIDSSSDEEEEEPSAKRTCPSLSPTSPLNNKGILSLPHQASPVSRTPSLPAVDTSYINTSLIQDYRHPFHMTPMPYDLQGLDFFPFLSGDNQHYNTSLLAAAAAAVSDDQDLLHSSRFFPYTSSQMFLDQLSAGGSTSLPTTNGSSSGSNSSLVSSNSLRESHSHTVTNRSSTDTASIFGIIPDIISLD

No constants are given. Whether binding was seen depends on the method and setting. In cells and extracts the contact can be indirect. Some binding calls cover weakened binding; strength is not graded here. Tags and fused reporters may be left off the sequences shown.

For this experiment, the target named is T1, HMGXB4-HA (co-IP with SUMO1 and PIAS1) (not stated (human or zebrafish cDNA cloned)) (UniProt Q9UGU5).
T1 sequence: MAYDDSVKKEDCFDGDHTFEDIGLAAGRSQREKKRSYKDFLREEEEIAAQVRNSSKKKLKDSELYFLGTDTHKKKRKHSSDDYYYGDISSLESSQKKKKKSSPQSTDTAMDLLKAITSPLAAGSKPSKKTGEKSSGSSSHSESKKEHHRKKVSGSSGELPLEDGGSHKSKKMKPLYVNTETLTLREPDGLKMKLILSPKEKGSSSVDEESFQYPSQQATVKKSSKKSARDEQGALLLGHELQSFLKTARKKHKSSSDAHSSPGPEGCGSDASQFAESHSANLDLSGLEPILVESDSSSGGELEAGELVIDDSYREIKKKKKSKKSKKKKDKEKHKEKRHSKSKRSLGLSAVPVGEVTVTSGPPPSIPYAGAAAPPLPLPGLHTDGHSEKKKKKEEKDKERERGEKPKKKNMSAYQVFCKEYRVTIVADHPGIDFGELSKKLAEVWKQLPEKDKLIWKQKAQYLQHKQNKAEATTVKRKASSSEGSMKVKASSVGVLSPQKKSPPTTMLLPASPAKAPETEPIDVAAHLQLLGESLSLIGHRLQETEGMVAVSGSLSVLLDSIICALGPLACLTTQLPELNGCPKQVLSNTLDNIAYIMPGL
As to the kind of experiment: co-IP; lysate of co-transfected HeLa or HEK293 cells, precipitated with rat monoclonal anti-HA; extraction buffer Tris-HCl 50 mM pH 7.4, NaCl 150 mM, EDTA 1 mM, NP-40 1%, Na-deoxycholate 0.25%; 2 h at 4 °C; immunoblot.

As for HIS-SUMO1 (from UniProt P63165 1-97), the binding result was “binds”.

Regarding “PIAS1 (co-IP) (from UniProt O75925 1-651)”, the binding result is recorded as “binds”.
